Reference: PubChem BioAssay AID1471 (National Center for Advancing Translational Sciences (NCATS), 2008)
“And” between values parts separate entries of the source, which are not always exact repeats. Identical values can stand only once. The whole screen tested about 230,000 compounds, of which about 310 (0.13%) were called active. This list was built around the results that the source calls inconclusive (neither active nor inactive); the mix of calls is not that of the screen. The call rests on the fitted dose curve; in most records, active means well fitted activation curve with a large enough effect; inconclusive means small, poorly fitted or top-dose-only effect; inactive means no such curve, though single readings can be large or run the other way. A potency beside an inconclusive call is a rough fit, not a confirmed value. Some compounds were tested as several samples or in several runs, with calls that do not always agree.

Test: qHTS Multiplex Assay to Identify Dual Action Probes in a Cell Model of Huntington: Cytoprotection (ATP); further: nearly all actives have a fitted effect of over 45% in size;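 on cytoprotection (ATP increase): toxic huntingtin expression switched on by the ecdysone agonist tebufenozide; % of control where 0% means no effect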
Details: PC12 HTT-Q103 induced, ATP luminescence, 40 h; cytoprotection (ATP increase): at 56.4 µM (top of the series) unless noted
Outline: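 PC12 cells stably carrying ecdysone-inducible Htt exon 1 (Q103)–GFP were induced with 100 nM tebufenozide (final) alongside library compounds in a dose series. Cytoprotection was scored as retained ATP by ATPlite luminescence.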
Potency means the concentration at half of the fitted maximal effect.

Row | SMILES | cytoprotection (ATP increase) | Potency
1 | Cc1sc2ncnc(SCC(=O)NNC(=O)c3ccco3)c2c1C | inactive: 10.9% [at 10 µM] | –
2 | Cc1ccc(/C=C2\S/C(=N/S(=O)(=O)c3cccs3)NC2=O)cc1 | inactive: 17.7% [at 10 µM] | –
3 | O=C(COC(=O)c1cc(=O)c2ccccc2o1)NC1CCCCC1 | – | inconclusive: 0.0045 µM [activator, full curve, poor fit]
4 | COCCCNC(=O)Cc1ccccc1OC | – | inactive
5 | CC1=NN(C(=O)c2cccc(Cn3nc(C)c([N+](=O)[O-])c3C)c2)C(O)(C(F)(F)F)C1 (configuration not stated) | – | inconclusive: 39.8 µM [activator, partial curve, poor fit]
6 | COc1ccc(-c2cc(C(=O)O)c3ccccc3n2)c(OC)c1 | – | inactive
7 | O=C(O)c1cccnc1SCc1cccc(Cl)c1 | – | inactive
8 | COC(=O)N1CCC2(CC1)CCN(c1ncccn1)CC2 | – | inconclusive: 0.891 µM [activator, full curve]
9 | Cc1ccc(C2CC(=O)C(C=NCCN3CCN(C(=S)Nc4ccc(F)cc4)CC3)=C(O)C2)cc1 (configuration not stated) | – | inconclusive: 12.6 µM [activator, single point]
10 | CC(C)C(=O)N(c1ccc2oc(=O)sc2c1)S(=O)(=O)c1ccccc1 | – | inconclusive: 35.5 µM [activator, single point]
11 | Cc1[nH]c2ccccc2c1/C=N/NC(=O)Nc1ccccc1 | – | inconclusive: 1.26 µM [activator, single point]
12 | O=C(Nc1ccc(Br)cc1F)c1cccnc1 | – | inconclusive: 1.26 µM [activator, single point]
13 | O=C1CCCc2c1sc1nc3n(c(=O)c21)CCCCC3 | – | inactive
14 | COC(=O)c1ccccc1NC(=O)CSc1nnc(C(C)NC(=O)c2ccc(Cl)cc2Cl)n1C (configuration not stated) | – | inconclusive: 5.62 µM [activator, single point]
15 | O=C(NCCN1CCOCC1)C1CCC(=O)N1C1CCCCC1 (configuration not stated) | – | inconclusive: 0.501 µM [activator, full curve, poor fit]
16 | O=S(=O)(c1ccc2nnn(O)c2c1)N1CCCCC1 | – | inconclusive: 0.1 µM [activator, full curve, poor fit]
17 | COc1cc2c(cc1OC)CN(c1nc(-c3cccnc3)nc3ccccc13)CC2 | – | inconclusive: 3.16 µM [activator, single point]
18 | O=C(c1ccc2ccccc2c1)C1CCCN(S(=O)(=O)c2cccnc2)C1 (configuration not stated) | – | inconclusive: 2.51 µM [activator, partial curve]
19 | Cc1ccc(S(=O)(=O)N2CCN(c3cc4c(cc3[N+](=O)[O-])n(C)c(=O)n4C)CC2)cc1 | – | inconclusive: 3.98 µM [activator, single point]
20 | CC1(C)OC2CC3C4CC(F)C5=CC(=O)C=C[C@@]5(C)[C@@]4(F)C(O)C[C@@]3(C)[C@]2(C(=O)CO)O1 (some centres not stated) | – | inactive
21 | O=[N+]([O-])C(=C1NCCN1)C(Cl)=C(Cl)Cl | inactive: 13% [at 10 µM] | –

Row | SMILES | cytoprotection (ATP increase) | Potency
22 | COc1ccccc1N1CCN(CCCNc2cc(=O)n(C)c(=O)n2C)CC1 | – | active: 31.6 µM
23 | NS(=O)(=O)c1ccc(N=Nc2c(O)c(C(=O)O)cc3ccccc23)cc1 | inactive: 11% [at 10 µM] and inactive: -14.9% [at 10 µM] | –
24 | O=C(OC[C@@H]1O[C@@](O)(COC(=O)c2cccnc2)[C@H](OC(=O)c2cccnc2)[C@H]1OC(=O)c1cccnc1)c1cccnc1 | – | inconclusive: 5.62 µM [activator, single point]
25 | C[C@@H]1c2cccc(O)c2C(O)=C2C(=O)[C@@]3(O)C(O)=C(C(N)=O)C(=O)[C@@H](N(C)C)[C@@H]3[C@@H](O)[C@@H]21 | inactive: 11.6% [at 1.9 µM] | inconclusive: 15.8 µM [activator, partial curve]
26 | Cc1ccc(C(=O)CC2(O)C(=O)Nc3ccccc32)s1 (configuration not stated) | inactive: -26% [at 10 µM] | –
27 | O=C(NCc1ccccc1)C1CCN(S(=O)(=O)c2cc([N+](=O)[O-])ccc2Cl)CC1 | inactive: -4.01% [at 10 µM] | –
28 | O=C(NCCc1c[nH]c2ccccc12)c1cccc(S(=O)(=O)Nc2ccccc2Cl)c1 | – | inconclusive: 5.62 µM [activator, single point]
29 | C/C(CCC(=O)OC[C@@H]1O[C@H](C#Cc2ccccc2)C=C[C@@H]1Oc1ccc(C)cc1)=N/OC[C@@H](O)COCc1ccco1 | inactive: -1.21% [at 10 µM] | –
30 | COc1c(C=O)c(O)cc2c1C(=O)c1ccccc1C2=O | – | inconclusive: 35.5 µM [activator, single point]
31 | Cc1cccnc1NC(=S)Nc1ccc(Cl)c(Cl)c1 | inactive: 15.8% [at 10 µM] | –
32 | Cn1cccc1C(=O)NC(=O)CSc1cccc[n+]1[O-] | – | inactive
33 | Cc1cc2c(c(=O)o1)[C@@H](O)[C@H]1O[C@@H]1C2=O | – | inconclusive: 0.447 µM [activator, partial curve, poor fit]
34 | CC(C)C(=O)Nc1ccc([N+](=O)[O-])c(C(F)(F)F)c1 | – | inconclusive: 4.47 µM [activator, full curve, poor fit]
35 | Cc1ccc(CNC(=O)C23CN(Cc4ccccc4)CC2C(c2ccc([N+](=O)[O-])cc2)=NO3)cc1 (configuration not stated) | – | inconclusive: 6.31 µM [activator, single point]
36 | Cc1nc2ccccc2c(-c2ccccc2)c1C(=O)c1ccccc1 | – | inconclusive: 1.26 µM [activator, single point]
37 | COc1ccc(/C=C/C(=O)NCCNC(=O)c2ccccc2)cc1OC | – | inconclusive: 0.005 µM [activator, full curve, poor fit]
38 | C=CCOc1nc2c(c(=O)n(C)c(=O)n2C)n1Cc1ccc(Cl)cc1 | – | inconclusive: 5.62 µM [activator, single point]
39 | CN(C)S(=O)(=O)c1cccc(NC(=O)c2cc3c(=O)n4ccccc4nc3s2)c1 | – | inconclusive: 0.562 µM [activator, single point]
40 | Cc1ccc(C)c(Nc2c(F)c(F)c(F)c(F)c2C(=O)O)c1 | – | inactive
41 | NC(=O)c1ccc(NC(=O)COC(=O)CCC(=O)c2ccc(Cl)cc2)cc1 | – | inconclusive: 4.47 µM [activator, single point]
